{"sequences": {"note": "Protein sequences, listed by entry. Tags and fused reporters are not part of them. Residues count along the entry.", "UniProt P46937": "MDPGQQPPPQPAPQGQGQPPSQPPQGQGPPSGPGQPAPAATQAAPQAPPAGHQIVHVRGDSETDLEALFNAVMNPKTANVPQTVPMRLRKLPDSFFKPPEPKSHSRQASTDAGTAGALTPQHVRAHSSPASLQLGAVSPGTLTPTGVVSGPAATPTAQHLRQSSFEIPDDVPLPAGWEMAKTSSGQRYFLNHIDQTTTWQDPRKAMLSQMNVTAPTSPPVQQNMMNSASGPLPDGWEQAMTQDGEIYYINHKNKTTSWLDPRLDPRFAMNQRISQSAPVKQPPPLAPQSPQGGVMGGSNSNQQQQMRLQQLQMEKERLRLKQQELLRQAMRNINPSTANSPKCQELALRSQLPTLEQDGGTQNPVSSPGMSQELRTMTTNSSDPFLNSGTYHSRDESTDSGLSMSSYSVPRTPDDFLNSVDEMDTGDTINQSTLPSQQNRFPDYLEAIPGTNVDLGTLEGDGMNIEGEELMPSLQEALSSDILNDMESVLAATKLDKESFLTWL", "UniProt Q15303, residues 26-1308": "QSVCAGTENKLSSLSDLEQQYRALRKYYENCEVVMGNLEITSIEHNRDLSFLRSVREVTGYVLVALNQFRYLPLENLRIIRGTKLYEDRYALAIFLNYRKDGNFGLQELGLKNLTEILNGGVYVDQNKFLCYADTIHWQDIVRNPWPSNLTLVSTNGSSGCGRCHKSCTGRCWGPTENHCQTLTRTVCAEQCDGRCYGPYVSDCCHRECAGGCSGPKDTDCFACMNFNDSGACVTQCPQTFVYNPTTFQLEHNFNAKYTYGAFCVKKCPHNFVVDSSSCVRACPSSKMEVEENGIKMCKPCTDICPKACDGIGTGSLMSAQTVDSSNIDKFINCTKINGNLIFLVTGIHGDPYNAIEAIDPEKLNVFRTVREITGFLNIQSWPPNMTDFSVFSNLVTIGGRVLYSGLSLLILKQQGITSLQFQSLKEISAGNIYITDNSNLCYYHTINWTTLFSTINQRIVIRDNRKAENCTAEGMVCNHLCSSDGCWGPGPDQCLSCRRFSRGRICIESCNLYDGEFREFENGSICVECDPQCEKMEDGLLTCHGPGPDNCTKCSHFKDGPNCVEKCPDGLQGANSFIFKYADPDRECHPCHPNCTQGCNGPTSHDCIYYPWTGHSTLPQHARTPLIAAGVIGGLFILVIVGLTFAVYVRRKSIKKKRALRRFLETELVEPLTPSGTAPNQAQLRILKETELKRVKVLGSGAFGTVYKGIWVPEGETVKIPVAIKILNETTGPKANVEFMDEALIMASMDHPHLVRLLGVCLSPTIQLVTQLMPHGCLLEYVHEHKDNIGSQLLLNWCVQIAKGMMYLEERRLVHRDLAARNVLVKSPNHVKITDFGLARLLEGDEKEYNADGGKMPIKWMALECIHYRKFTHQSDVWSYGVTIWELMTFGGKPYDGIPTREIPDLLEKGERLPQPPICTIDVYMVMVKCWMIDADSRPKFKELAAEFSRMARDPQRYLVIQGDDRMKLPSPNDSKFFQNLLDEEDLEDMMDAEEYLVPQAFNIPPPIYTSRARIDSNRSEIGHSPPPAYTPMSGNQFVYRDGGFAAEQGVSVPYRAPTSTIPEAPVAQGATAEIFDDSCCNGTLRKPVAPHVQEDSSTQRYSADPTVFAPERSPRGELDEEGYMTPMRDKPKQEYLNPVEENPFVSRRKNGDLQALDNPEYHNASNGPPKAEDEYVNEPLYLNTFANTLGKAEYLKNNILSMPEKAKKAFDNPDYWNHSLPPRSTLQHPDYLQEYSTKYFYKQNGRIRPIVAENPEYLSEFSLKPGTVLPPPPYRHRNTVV"}, "source": "paper PMC5978807", "key": {"[1]": {"target": "YAP1 (human (endogenous in MKN45TR and NCI-N87TR)) (UniProt P46937)", "test": "co-IP; MKN45TR and NCI-N87TR cell lysates pre-cleared with protein A/G agarose beads; HER4 and YAP1 antibodies each used to pull down interacting proteins; western blotting; IgG as control"}, "[2]": {"target": "HER4 (human (endogenous in MKN45TR and NCI-N87TR)) (UniProt Q15303)", "test": "co-IP; MKN45TR and NCI-N87TR cell lysates pre-cleared with protein A/G agarose beads; HER4 and YAP1 antibodies each used to pull down interacting proteins; western blotting; IgG as control"}}, "note": "No constants are given. Whether binding was seen depends on the method and setting. In cells and extracts the contact can be indirect. Some entries that bind do so weakly or less than the wild type.", "data": [{"substance": "HER4 (from UniProt Q15303 26-1308) (receptor)", "values": [{"measurement": "binding", "setting": "[1]", "result": "binds"}]}, {"substance": "YAP1 (from UniProt P46937 1-504)", "values": [{"measurement": "binding", "setting": "[2]", "result": "binds"}]}]}
